Assay results: publication PMC11111408, “Concurrent inhibition of oncogenic and wild-type RAS-GTP for cancer therapy” (Nature, 2024)
The source gives many values for each of these; only a part stands here.

System: PRISM DNA-barcoded human tumour cell lines
Assay: PRISM pooled cell viability assay;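 note: 8 threefold dilutions from 10 µM with 5 days of exposure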
Assay type: cell-based
Set-up: Area under the curve (AUC): scale not given here
Details: for PRISM AUC: KRAS MUT
Method: Cells were then lysed in TCL mRNA lysis buffer, and then PCR with reverse transcription was performed. Detection of the barcodes and univariate and multivariate analysis was then performed as previously described. Data analysis is described in the Supplementary Methods. Up-to-date code for our analysis is at the github link: https://github.com/cmap/dockerized_mts.
For every gene with non-silent mutations in at least four cell-lines, we compared the AUC values between cells with and without those mutations using a t-test. This analysis was carried out for: (i) the full dataset; (ii) excluding cell lines with non-silent KRAS mutations; and (iii) excluding cell lines that have either KRAS or NRAS non-silent mutations.

[1] = KMS28BM_HAEMATOPOIETIC_AND_LYMPHOID_TISSUE

## CCn1c(-c2cc(N3CCN(C4CC4)CC3)cnc2[C@H](C)OC)c2c3cc(ccc31)-c1csc(n1)C[C@H](NC(=O)[C@H]1[C@@H]3COC[C@@H]31)C(=O)N1CCC[C@H](N1)C(=O)OCC(C)(C)C2 [RMC-7977]
IGR37_SKIN
  Area under the curve (AUC): 0.9205
IGR39_SKIN
  Area under the curve (AUC): 0.8992
IGROV1_OVARY
  Area under the curve (AUC): 0.7676
IHH4_THYROID
  Area under the curve (AUC): 0.9203
IM95_STOMACH
  Area under the curve (AUC): 0.5173
IPC298_SKIN
  Area under the curve (AUC): 0.3609
ISHIKAWAHERAKLIO02ER_ENDOMETRIUM
  Area under the curve (AUC): 0.8318
ISTMES2_PLEURA
  Area under the curve (AUC): 1
J82_URINARY_TRACT
  Area under the curve (AUC): 0.801
JAR_PLACENTA
  Area under the curve (AUC): 0.7721
JEG3_PLACENTA
  Area under the curve (AUC): 0.9061
JEKO1_HAEMATOPOIETIC_AND_LYMPHOID_TISSUE
  Area under the curve (AUC): 0.8433
JHH1_LIVER
  Area under the curve (AUC): 0.496
JHH4_LIVER
  Area under the curve (AUC): 0.85
JHH5_LIVER
  Area under the curve (AUC): 0.5644
JHH6_LIVER
  Area under the curve (AUC): 0.7403
JHH7_LIVER
  Area under the curve (AUC): 0.7968
JHOC5_OVARY
  Area under the curve (AUC): 0.7218
JHOM1_OVARY
  Area under the curve (AUC): 0.8545
JHOS2_OVARY
  Area under the curve (AUC): 0.7733
JHUEM2_ENDOMETRIUM
  Area under the curve (AUC): 0.8605
JHUEM7_ENDOMETRIUM
  Area under the curve (AUC): 0.62
JIMT1_BREAST
  Area under the curve (AUC): 0.7261
JJN3_HAEMATOPOIETIC_AND_LYMPHOID_TISSUE
  Area under the curve (AUC): 0.6499
JL1_PLEURA
  Area under the curve (AUC): 0.584
JM1_HAEMATOPOIETIC_AND_LYMPHOID_TISSUE
  Area under the curve (AUC): 0.8388
JMSU1_URINARY_TRACT
  Area under the curve (AUC): 0.8302
JMURTK2_SOFT_TISSUE
  Area under the curve (AUC): 1
JOPACA1_PANCREAS
  Area under the curve (AUC): 0.4149
JR_SOFT_TISSUE
  Area under the curve (AUC): 0.6032
JURKAT_HAEMATOPOIETIC_AND_LYMPHOID_TISSUE
  Area under the curve (AUC): 1
JURLMK1_HAEMATOPOIETIC_AND_LYMPHOID_TISSUE
  Area under the curve (AUC): 0.5365
JVM3_HAEMATOPOIETIC_AND_LYMPHOID_TISSUE
  Area under the curve (AUC): 0.7607
K029AX_SKIN
  Area under the curve (AUC): 0.9269
K562_HAEMATOPOIETIC_AND_LYMPHOID_TISSUE
  Area under the curve (AUC): 0.607
KALS1_CENTRAL_NERVOUS_SYSTEM
  Area under the curve (AUC): 0.8609
KARPAS299_HAEMATOPOIETIC_AND_LYMPHOID_TISSUE
  Area under the curve (AUC): 0.4836
KARPAS620_HAEMATOPOIETIC_AND_LYMPHOID_TISSUE
  Area under the curve (AUC): 0.5423
KARPAS1718_HAEMATOPOIETIC_AND_LYMPHOID_TISSUE
  Area under the curve (AUC): 0.937
KATOIII_STOMACH
  Area under the curve (AUC): 0.6092
KCL22_HAEMATOPOIETIC_AND_LYMPHOID_TISSUE
  Area under the curve (AUC): 0.7801
KD_SOFT_TISSUE
  Area under the curve (AUC): 0.9238
KE37_HAEMATOPOIETIC_AND_LYMPHOID_TISSUE
  Area under the curve (AUC): 0.6942
KE39_STOMACH
  Area under the curve (AUC): 0.6587
KE97_STOMACH
  Area under the curve (AUC): 0.8103
KELLY_AUTONOMIC_GANGLIA
  Area under the curve (AUC): 0.8452
KHM1B_HAEMATOPOIETIC_AND_LYMPHOID_TISSUE
  Area under the curve (AUC): 0.4036
KKU055_BILIARY_TRACT
  Area under the curve (AUC): 0.9851
KKU100_BILIARY_TRACT
  Area under the curve (AUC): 0.508
KKU213_BILIARY_TRACT
  Area under the curve (AUC): 0.6421
KLE_ENDOMETRIUM
  Area under the curve (AUC): 1
KMBC2_URINARY_TRACT
  Area under the curve (AUC): 0.4637
KMCH1_BILIARY_TRACT
  Area under the curve (AUC): 0.7543
KMH2_HAEMATOPOIETIC_AND_LYMPHOID_TISSUE
  Area under the curve (AUC): 0.9807
KMRC1_KIDNEY
  Area under the curve (AUC): 1
KMRC3_KIDNEY
  Area under the curve (AUC): 0.9151
KMRC20_KIDNEY
  Area under the curve (AUC): 0.7848
KMS11_HAEMATOPOIETIC_AND_LYMPHOID_TISSUE
  Area under the curve (AUC): 0.8315
KMS12BM_HAEMATOPOIETIC_AND_LYMPHOID_TISSUE
  Area under the curve (AUC): 0.8787
KMS18_HAEMATOPOIETIC_AND_LYMPHOID_TISSUE
  Area under the curve (AUC): 0.4607
KMS21BM_HAEMATOPOIETIC_AND_LYMPHOID_TISSUE
  Area under the curve (AUC): 0.5385
KMS27_HAEMATOPOIETIC_AND_LYMPHOID_TISSUE
  Area under the curve (AUC): 0.4667
[1]
  Area under the curve (AUC): 0.7652
  PRISM AUC: 0.6205
KMS34_HAEMATOPOIETIC_AND_LYMPHOID_TISSUE
  Area under the curve (AUC): 0.8463
KNS42_CENTRAL_NERVOUS_SYSTEM
  Area under the curve (AUC): 0.8517
KNS60_CENTRAL_NERVOUS_SYSTEM
  Area under the curve (AUC): 0.8388
KNS62_LUNG
  Area under the curve (AUC): 0.5352
KNS81_CENTRAL_NERVOUS_SYSTEM
  Area under the curve (AUC): 0.5921
KON_UPPER_AERODIGESTIVE_TRACT
  Area under the curve (AUC): 0.4726
KOPN8_HAEMATOPOIETIC_AND_LYMPHOID_TISSUE
  Area under the curve (AUC): 0.4718
KOSC2CL343_UPPER_AERODIGESTIVE_TRACT
  Area under the curve (AUC): 0.5539
KP2_PANCREAS
  Area under the curve (AUC): 0.3867
KP3_PANCREAS
  Area under the curve (AUC): 0.5817
KP4_PANCREAS
  Area under the curve (AUC): 0.6677
KPNYN_AUTONOMIC_GANGLIA
  Area under the curve (AUC): 0.9976
KS1_CENTRAL_NERVOUS_SYSTEM
  Area under the curve (AUC): 0.6006
KU812_HAEMATOPOIETIC_AND_LYMPHOID_TISSUE
  Area under the curve (AUC): 0.5989
KU1919_URINARY_TRACT
  Area under the curve (AUC): 0.4352
KURAMOCHI_OVARY
  Area under the curve (AUC): 0.9422
KYM1_SOFT_TISSUE
  Area under the curve (AUC): 0.6237
KYO1_HAEMATOPOIETIC_AND_LYMPHOID_TISSUE
  Area under the curve (AUC): 0.587
KYSE30_OESOPHAGUS
  Area under the curve (AUC): 0.5749
KYSE70_OESOPHAGUS
  Area under the curve (AUC): 0.6455
KYSE140_OESOPHAGUS
  Area under the curve (AUC): 0.7212
KYSE150_OESOPHAGUS
  Area under the curve (AUC): 0.6598
KYSE180_OESOPHAGUS
  Area under the curve (AUC): 0.8299
KYSE270_OESOPHAGUS
  Area under the curve (AUC): 0.6612
KYSE410_OESOPHAGUS
  Area under the curve (AUC): 0.5098
KYSE450_OESOPHAGUS
  Area under the curve (AUC): 0.5089
KYSE510_OESOPHAGUS
  Area under the curve (AUC): 0.6235
KYSE520_OESOPHAGUS
  Area under the curve (AUC): 0.6342
L33_PANCREAS
  Area under the curve (AUC): 0.5375
L82_HAEMATOPOIETIC_AND_LYMPHOID_TISSUE
  Area under the curve (AUC): 0.4783
L363_HAEMATOPOIETIC_AND_LYMPHOID_TISSUE
  Area under the curve (AUC): 0.7257
LAMA84_HAEMATOPOIETIC_AND_LYMPHOID_TISSUE
  Area under the curve (AUC): 0.6417
LC1SQSF_LUNG
  Area under the curve (AUC): 0.7829
LCLC103H_LUNG
  Area under the curve (AUC): 0.8221
LI7_LIVER
  Area under the curve (AUC): 0.661
LK2_LUNG
  Area under the curve (AUC): 0.5337
LMSU_STOMACH
  Area under the curve (AUC): 0.6607
LN18_CENTRAL_NERVOUS_SYSTEM
  Area under the curve (AUC): 0.8114
LN229_CENTRAL_NERVOUS_SYSTEM
  Area under the curve (AUC): 0.7455
LN382_CENTRAL_NERVOUS_SYSTEM
  Area under the curve (AUC): 0.6664
LN464_CENTRAL_NERVOUS_SYSTEM
  Area under the curve (AUC): 0.8868
LNCAPCLONEFGC_PROSTATE
  Area under the curve (AUC): 0.8391
LNZ308_CENTRAL_NERVOUS_SYSTEM
  Area under the curve (AUC): 0.6041
LOUNH91_LUNG
  Area under the curve (AUC): 0.4513
LOVO_LARGE_INTESTINE
  Area under the curve (AUC): 0.6475
LOXIMVI_SKIN
  Area under the curve (AUC): 0.8979
LPS141_SOFT_TISSUE
  Area under the curve (AUC): 0.9304
LS180_LARGE_INTESTINE
  Area under the curve (AUC): 0.5319
LS411N_LARGE_INTESTINE
  Area under the curve (AUC): 0.9628
LS513_LARGE_INTESTINE
  Area under the curve (AUC): 0.5881
LS1034_LARGE_INTESTINE
  Area under the curve (AUC): 0.6086
  PRISM AUC: 0.5003
LS_AUTONOMIC_GANGLIA
  Area under the curve (AUC): 0.9057
LU99_LUNG
  Area under the curve (AUC): 0.4577
LUDLU1_LUNG
  Area under the curve (AUC): 0.5866
